Results reported in PubChem BioAssay AID1259415 (National Center for Advancing Translational Sciences (NCATS), 2018).
About 18,000 (4.4%) of roughly 410,000 compounds were called active. The shares of active, inactive and inconclusive entries below differ from those in the screen. Rule as the data show it: active = activity change below about -60%; inconclusive = no clear call, values can overlap the other calls; inactive = above about -39%.

assay: qHTS Assay for inhibitors of the human cytomegalovirus (HCMV); conditions: HFF cells, HCMV-luciferase reporter, 72 h; at 57.5 µM; stronger effect = lower value
Procedure, shortened: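 Human foreskin fibroblasts infected with luciferase-reporter HCMV at MOI 1 PFU/cell, compounds at two doses. Luciferase measured 72 h post infection; normalized to buffer-only basal and Salinomycin (10uM) controls.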
% is scaled to controls: 0 for no effect and ±100 for the full control effect.

SMILES | activity change, negative = inhibition
CCCC(C)C(=O)Nc1ccc(Cl)cc1Cl (stereo not drawn) | active: -77.8%
Fc1ccc(-n2nnc(-c3cnc4ccccc4c3)n2)cc1 | inactive: 52.1%
CCc1ccc(C(O)c2ncc(-c3cccc(C(F)(F)F)c3)[nH]2)cc1 (stereo not drawn) | inconclusive: -58.4%
O=C(/C=C/Nc1ccc([N+](=O)[O-])cc1)c1ccc(Br)cc1 | inconclusive: -48.5%
N/N=C(\c1ccccc1)C12CN3CN(CN(C3)C1)C2 | inconclusive: -42.4%
CCCOP(=O)(OCCC)C(NC(=O)c1ccccc1)=C(Cl)Cl | inconclusive: -43.7%
COc1ccc(Cc2nc3ccc(C(=O)NCCc4ccc(OC)c(OC)c4)cc3o2)cc1 | inconclusive: -49.5%
COc1ccc2c3c(n(C)c2c1)[C@@H](CO)N(C)CC31CN(C(=O)CN2CCOCC2)C1 | inactive: 4.5%
O=C(Nc1cccc(C(F)(F)F)c1)C1CCN(S(=O)(=O)c2ccc(N3CCCC3=O)cc2)CC1 | active: -65.7%
NS(=O)(=O)c1cccc(NC(=O)COC(=O)C2CCCCC2)c1 | inconclusive: -48.7%
COc1ccc(S(=O)(=O)NCC(c2ccco2)N2CCN(c3ccc(F)cc3)CC2)cc1 (stereo not drawn) | inconclusive: -46.1%
COc1ccc(N2CCN(C(=O)CSc3nnc(-c4cccnc4)n3-c3ccc(F)cc3)CC2)cc1 | inconclusive: -42.7%
COc1ccc(S(=O)(=O)N2CCN(c3ccccc3)CC2)cc1-c1noc(C)n1 | inconclusive: -44.1%
Cc1cc(F)ccc1NC(=O)C1CCN(S(=O)(=O)c2ccc3c(c2)CCCC(=O)N3)CC1 | inconclusive: 0%
COc1cc(/C=C(\C#N)C(=O)NCC2CCCO2)ccc1OC(C)C (stereo not drawn) | inactive: 8.56%
COc1ccc(S(=O)(=O)N2CCN(Cc3cccs3)CC2)cc1OC | inconclusive: -52.5%
CCCCn1c(N)c(N(CC)C(=O)c2ccccc2F)c(=O)[nH]c1=O | inactive: 11.3%
CCSc1nc2ccccc2c(=O)n1CCc1ccc(OC)c(OC)c1 | inconclusive: -54.5%
CCCCOc1cccc(C(=O)N(Cc2ccc(Br)o2)C2CCS(=O)(=O)C2)c1 (stereo not drawn) | inconclusive: -40.5%
COc1ccccc1CNC(=O)COC(=O)C1CC1 | inactive: 0%
O=S(=O)(NCC1CCCO1)c1ccc(Oc2ccccc2)cc1 (stereo not drawn) | inconclusive: -48.1%
Cc1cccc(NC(=O)Nc2cccc(Oc3c(F)c(F)c(F)c(F)c3F)c2)c1 | active: -76.5%

Compounds from the list above with an NH in an aromatic ring, in the order listed:
SMILES | activity change, negative = inhibition
CCc1ccc(C(O)c2ncc(-c3cccc(C(F)(F)F)c3)[nH]2)cc1 (stereo not drawn) | inconclusive: -58.4%
CCCCn1c(N)c(N(CC)C(=O)c2ccccc2F)c(=O)[nH]c1=O | inactive: 11.3%

(cont.)

SMILES | activity change, negative = inhibition
CCCCCc1nnc(NC(=O)c2cccc(S(=O)(=O)N3CCOCC3)c2)s1 | inconclusive: -42.5%
O=C(N/N=C(\c1ccccc1)c1ccccn1)c1ccccc1Cl | active: -114%
Cc1ccccc1CS(=O)(=O)c1cnc2ccccc2n1 | inconclusive: -50.5%
COC1C(=O)CCC2(CO2)C1(O)C1(C)OC1CC=C(C)C (stereo not drawn) | active: -76.5%
CN1CCc2nc(NC(=O)COc3ccc(C#N)cc3)sc2C1 | inactive: -36%
Cn1c(SCC(=O)Nc2ccc(Cl)cn2)nnc1C1CC1 | inconclusive: -49.4%
COC(=O)[C@@]12C[C@@H](CC(=O)N3CCSCC3)C(=O)N(Cc3ccccc3)C1=CCC(C)(C)C2 | inconclusive: -49.2%
CCCc1nc2ccc(C)cn2c1Cc1ccccc1C(F)(F)F | active: -69.1%
O=C(Cn1c(=O)n(Cc2ccc(C(=O)NCc3ccc4c(c3)OCO4)cc2)c(=O)c2ccccc21)Nc1ccc(F)cc1F | inconclusive: -40.4%
Cc1ccc(S(=O)(=O)Nc2ccc3c(c2)OCCO3)cc1C | inconclusive: -41.8%
COC(=O)c1ccn(-c2nc(-c3ccc(Cl)cc3)cc(C(F)(F)F)n2)n1 | inactive: -8.44%
Nc1cc(=O)[nH]c(SCc2cccc(Cl)c2)n1 | inconclusive: -52.8%
O=C(NC(=S)Nc1cc(Cl)ccc1O)c1cccc(Br)c1 | inconclusive: -45.7%
O=C(Nc1cccc(C(=O)O)c1)/C(=C\c1ccccc1)NC(=O)c1cccc2ccccc12 | inconclusive: -42.1%
CCC(C(=O)Nc1nccs1)c1ccccc1 (stereo not drawn) | inactive: 36.5%
C[C@]12C=CC(=O)C=C1CC[C@@H]1C2=CC[C@]2(C)[C@@H](C(=O)CN3CCN(c4cc(N5CCCC5)nc(N5CCCC5)n4)CC3)CC[C@@H]12 | inconclusive: -55.2%
Fc1ccc(NC(=S)NCCN2CCOCC2)c(F)c1F | inconclusive: -55.7%
COc1ccc(NC(=O)CSc2nc3ccccc3c(=O)n2C)cc1 | inconclusive: -42.2%
CN(/N=C/c1ccco1)C1=NS(=O)(=O)c2ccccc21 | inconclusive: -54%
COc1cccc(/C=C/C(=O)c2ccc[nH]2)c1 | active: -86.7%
CC(=O)NC12CC3CC(C1)CC(C(=O)OCC(=O)c1ccc4c(c1)OCCO4)(C3)C2 | inconclusive: -43.9%
